The text below walks through data of article PMC2265524, “ruvA Mutants That Resolve Holliday Junctions but Do Not Reverse Replication Forks” (PLoS Genetics, 2008).

Changes are numbered by the printed parent chain. For part of these data: A negative result means that nothing was seen under these conditions. Tags and fusion partners may be left off the protein sequences shown. For part of these data: The comparison behind a weaker result is the experiment's own reference, which may not be listed here. For part of these data: Construct, isoform or probe ends are uncertain for at least one entry. For part of these data: At least one verdict was read from the data and is not stated in words by the source.

What all share (assay): EMSA
For orientation: Mobility shift assays separate free from complexed probe on a gel.

For data set [1], the target named is T1, RuvA wild type (Escherichia coli) (UniProt P0A809).
T1 sequence (looked up): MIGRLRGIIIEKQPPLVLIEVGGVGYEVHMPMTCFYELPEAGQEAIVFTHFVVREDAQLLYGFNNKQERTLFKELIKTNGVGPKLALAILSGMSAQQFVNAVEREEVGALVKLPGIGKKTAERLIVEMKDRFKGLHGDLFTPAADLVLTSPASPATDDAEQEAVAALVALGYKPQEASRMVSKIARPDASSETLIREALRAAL
The note with it: 5 mM EDTA; EMSA with ~4-5 ng labelled DNA; 5 mM EDTA (gel 0.5x TBE) or 3 mM MgCl2 without EDTA (gel 0.5x TB + 200 uM MgCl2); recombinant protein; residues …; label: 5' IRD700 on S24 (IT.01); folded or branched DNA.

Data set [2] deals with T2, RuvAz3 H29R,K129E,F140S (Escherichia coli) (UniProt P0A809).
T2 sequence (looked up): T1 sequence (looked up) with H29R, K129E, F140S
Particulars: EMSA with ~4-5 ng labelled DNA, 5 mM EDTA (gel 0.5x TBE) or 3 mM MgCl2 without EDTA (gel 0.5x TB + 200 uM MgCl2), recombinant protein, residues 1-203, label: 5' IRD700 on S24 (IT.01), folded or branched DNA.

In data set [3] the target is T3, RuvAz87 N79D,N100D (Escherichia coli) (UniProt P0A809).
T3 sequence (looked up): T1 sequence (looked up) with N79D, N100D
The note with it: EMSA with ~4-5 ng labelled DNA, 5 mM EDTA (gel 0.5x TBE) or 3 mM MgCl2 without EDTA (gel 0.5x TB + 200 uM MgCl2), recombinant protein, residues 1-203, label: 5' IRD700 on S24 (IT.01), folded or branched DNA.

[4] abbreviates: EDTA, slightly lower binding, complex I only.

For the sequence “GACGCTGCCGAATTCTACCAGTGCCTTGCTAGGACATCTTTGCCCACCTGCAGGTTCACCC / ATGGATAGTCGGATCCTCTAGACAGCTCCATGTAGCAAGGCACTGGTAGAATTCGGCAGCGT / TGGGTGAACCTGCAGGTGGGCAAAGATGTCC / CATGGAGCTGTCTAGAGGATCCGACTATCGA [F2 (fork, three double-stranded arms)]”, the binding result in data set [1] is “binds”.

As to “GACGCTGCCGAATTCTACCAGTGCCTTGCTAGGACATCTTTGCCCACCTGCAGGTTCACCC / ATGGATAGTCGGATCCTCTAGACAGCTCCATGTAGCAAGGCACTGGTAGAATTCGGCAGCGT / TGGGTGAACCTGCAGGTGGGCAAAGATGTCC [F1 (fork, one arm single-stranded)]”, the binding result in data set [1] is “binds”.

As for “GACGCTGCCGAATTCTACCAGTGCCTTGCTAGGACATCTTTGCCCACCTGCAGGTTCACCC / TGGGTGAACCTGCAGGTGGGCAAAGATGTCCTAGCAATGTAATCGTCAAGCTTTATGCCGTT / CAACGGCATAAAGCTTGACGATTACATTGCTAGGACATGCTGTCTAGAGGATCCGACTATCGA / ATCGATAGTCGGATCCTCTAGACAGCATGTCCTAGCAAGGCACTGGTAGAATTCGGCAGCGT [X12 (synthetic Holliday junction)]”, the binding result in data set [2] (3 mM Mg2+, partially unable to shift) is listed as “binds more weakly”; in data set [2] (setting [4]), “binds more weakly”; in data set [3] (3 mM Mg2+, totally unable to shift), “no binding”; in data set [3] (setting [4]) it was “binds more weakly”.
